Drawing on PubChem BioAssay AID1487 (National Center for Advancing Translational Sciences (NCATS), 2009), this text covers AC50 for 52 compounds.

By AC50 is commonly meant the concentration at which the activity in the assay is half-maximal.

Several values for one entry are separate records, joined by “and”; a condition that tells them apart may be missing. Equal values may be shown once. The list shows a part of the results. Shown are side measurements of this screen, not its main read-out; they come without a call. Most of these compounds were active or inconclusive in the main read-out, so they are no random draw. Potencies come from curve fits of mixed quality, noted in brackets.

This experiment in a line: qHTS Assay for Modulators of Lamin A Splicing. The following applies: HeLa LMNA splicing GFP/RFP minigene ratio, 48 h. In a few lines: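 S3 HeLa stable clones carrying a lamin A-EGFP splicing minigene plus DsRed2 were seeded at 600 cells/well in Opti-MEM with 2% FBS, pin-dosed and incubated 48 h at 37°C. Acumen cytometry (488 nm) gave the GFP/RFP total-intensity ratio.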
For orientation: qHTS replaces the single test concentration by a dilution series.

Where [1] appears, read: measured here: RFP viability control channel.
Setting [2] is: measured here: GFP splicing reporter channel.

In the case of `CCOC(=O)c1ccccc1NC(=O)Cc1c(C(=O)O)c(C)cn1C`, under setting [1], the half-maximal activity concentration (AC50) was 0.2 µM [falling, full curve, poor fit].
For the compound `COc1ccc(-c2cc(=O)c3ccccc3o2)cc1`, the half-maximal activity concentration (AC50) was 12.6 µM [rising, single point] under setting [2] and 11.2 µM [rising, single point] under setting [1].
With `Cc1ccccc1C1C2=C(Nc3[nH]n(-c4ccccc4)c(=O)c31)c1ccccc1C2=O` (configuration not stated), the AC50 under setting [1] is 14.1 µM [rising, partial curve].
As for `O=C(NCC(c1cccnc1)N1CCN(c2ccccc2)CC1)c1ccc2c(c1)OCO2` (configuration not stated), the concentration at half-maximal activity (AC50) under setting [1] is 14.1 µM [rising, single point].
Consider `Cc1cc(C)nc(N/N=C/C2=C(N3CCOCC3)C(=C\c3ccc(Cl)cc3)/CC2)n1`, for which, under setting [1], the AC50 was 22.4 µM [rising, partial curve, poor fit].
Turning to `c1c2c(cc3sc(N4CCCCC4)nc13)OCCO2`, the AC50 under setting [2] was 35.5 µM [rising, single point].
Consider `Cc1ccccc1-c1nc(CN2CCCC2c2ccc(F)cc2)c(C)o1` (configuration not stated), for which the concentration at half-maximal activity (AC50) under setting [2] was 22.4 µM [falling, partial curve] and the AC50 under setting [1] was 0.178 µM [falling, full curve, poor fit].
In the case of `COc1ccc(OC)c(N2Cc3ccccc3C2)c1`, the half-maximal activity concentration (AC50) under setting [1] is 17.8 µM [rising, single point].
Regarding `CC(C)N(C#N)c1nc(N2CCOCC2)nc(N2CCOCC2)n1`, the AC50 under setting [1] was 35.5 µM [rising, single point].
As to `Cc1cccc(CS(=O)(=O)CC2Nc3ccc(C(=O)NCc4ccccc4)cc3NC2=O)c1` (configuration not stated), the half-maximal activity concentration (AC50) under setting [2] is 14.1 µM [falling, partial curve, poor fit] and the concentration at half-maximal activity (AC50) under setting [1] was 28.2 µM [falling, partial curve].
For `CCCCCn1c(CN2CCN(c3cc(Cl)ccc3C)CC2)nc2c1c(=O)[nH]c(=O)n2C`, the AC50 under setting [2] is 35.5 µM [falling, single point] and the concentration at half-maximal activity (AC50) under setting [1] is 25.1 µM [falling, single point].
In the case of `O=C(c1ccco1)N1CCN(c2nc(C3CC3)nc3c2nnn3Cc2ccccc2Cl)CC1`, the AC50 was 31.6 µM [rising, single point] under setting [2] and 35.5 µM [rising, single point] under setting [1].
Consider `O=[N+]([O-])c1cc(S(=O)(=O)Nc2cccc(Cl)c2)ccc1N=Nc1c(O)[nH]c2ccccc12`, for which the AC50 reads like this: under setting [2], 25.1 µM [falling, single point]; under setting [1], 35.5 µM [falling, single point].
For the compound `CCN(CC)C(=O)c1cccc(-c2ccc(OC)cc2)c1`, the AC50 under setting [2] was 11.2 µM [rising, partial curve] and the concentration at half-maximal activity (AC50) under setting [1] was 11.2 µM [rising, partial curve].
In the case of `O=C(NCc1cc(C(F)(F)F)cc(C(F)(F)F)c1)C1CC(c2c(Cl)cccc2Cl)=NO1` (configuration not stated), the concentration at half-maximal activity (AC50) runs as follows: under setting [2], 35.5 µM [rising, single point]; under setting [1], 35.5 µM [rising, single point].
As to `COc1ccc(N2CCN(C(=O)CSc3nc4c(c(=O)n(C)c(=O)n4C)n3C(C)C)CC2)cc1`, under setting [1], the AC50 is 8.91 µM [rising, partial curve].
Regarding `COc1ccc(N2CCCn3c2nc2c3c(=O)n(CCCc3ccccc3)c(=O)n2C)cc1`, the half-maximal activity concentration (AC50) is, setting by setting: under setting [2], 7.94 µM [rising, partial curve, poor fit]; under setting [1], 11.2 µM [rising, partial curve, poor fit].
On to `CCn1c(=O)c2[nH]c(-c3ccccc3)nc2n(CC)c1=O`, for which the AC50 was 6.31 µM [falling, partial curve, poor fit] under setting [2] and 0.316 µM [rising, full curve, poor fit] under setting [1].
In the case of `Cc1ccc(-n2nnnc2SC(C(=O)c2c[nH]c3ccccc23)c2ccccc2)cc1` (configuration not stated), the AC50 runs as follows: under setting [2], 35.5 µM [falling, single point]; under setting [1], 35.5 µM [falling, single point].
In the case of `COc1ccc(S(=O)(=O)NCC(c2cccs2)S(=O)(=O)c2ccc(C)cc2)cc1F` (configuration not stated), the concentration at half-maximal activity (AC50) is 0.708 µM [falling, full curve, poor fit] under setting [2] and 0.794 µM [falling, single point] under setting [1].
As for `N#Cc1c(-c2ccccc2)no[n+]1[O-]`, the AC50 under setting [2] is 12.6 µM [falling, partial curve] and the half-maximal activity concentration (AC50) under setting [1] was 12.6 µM [falling, partial curve].
For `COc1ccc(-c2csc(NC(=O)CC(C)C)n2)cc1`, under setting [1], the concentration at half-maximal activity (AC50) is 35.5 µM [rising, single point].
Still for that read-out and setting: to `CCCNc1nc(-c2ccccc2)c(C(=O)OCC)cc1C#N` belongs 5.62 µM [rising, single point].
Take `Cc1nnc(N(C)C(=O)c2ccncc2)s1`: under setting [1], the AC50 was 0.0251 µM [falling, full curve, poor fit].
On the same count and under the same terms, to `Cc1ccc(S(=O)(=O)N/N=C/c2cccc([N+](=O)[O-])c2)cc1` belongs 28.2 µM [rising, single point].
As for `CCCNC[C@H](O)COc1ccccc1C(=O)CCc1ccccc1`, the half-maximal activity concentration (AC50) by setting is: under setting [2], 200 nM [falling, single point] and 2.82 µM [rising, single point]; under setting [1], 0.251 µM [falling, single point].
As for `CCN(CC)c1ccc(-c2nc3cnccn3c2NC2CCCC2)cc1`, the AC50 was 25.1 µM [falling, single point] under setting [2] and 22.4 µM [falling, single point] under setting [1].
Turning to `NC1=NC(=Nc2cccc(Cl)c2)c2ccccc21`, the AC50 under setting [1] was 8.91 µM [rising, single point].
Consider `Cc1ccc(NC(=O)CCc2c(C)nn(-c3ccc(N4CCCCC4)nn3)c2C)cc1F`, for which the half-maximal activity concentration (AC50) under setting [2] was 3.16 µM [falling, partial curve, poor fit] and the half-maximal activity concentration (AC50) under setting [1] is 0.112 µM [falling, full curve, poor fit].
Turning to `Nc1nc(Cl)nc2c1ncn2[C@@H]1O[C@H](CO)[C@H](O)C1F` (some centres not stated), the concentration at half-maximal activity (AC50) under setting [1] was 0.0794 µM [rising, full curve].
For the compound `CCC(=O)Nc1sc(Cc2ccccc2)c(C)c1C(N)=O`, the AC50 reads like this: under setting [2], 35.5 µM [falling, single point]; under setting [1], 35.5 µM [falling, single point].
Consider `COc1ccc(N=C2SC(CC(=O)Nc3ccc(F)cc3)C(=O)N2Cc2ccco2)cc1` (configuration not stated), for which the AC50 under setting [1] is 7.94 µM [rising, partial curve, poor fit].
Consider `CCCCCCCCCC(=O)NC(CN1CCOCC1)[C@H](O)c1ccccc1` (some centres not stated), for which the AC50 is, setting by setting: under setting [2], 6.31 µM [falling, partial curve, poor fit]; under setting [1], 0.00447 µM [falling, full curve, poor fit].
Regarding `COC(=O)c1ccc(Oc2nc(Nc3ccc(C)c(C)c3)nc(N(C)C)n2)cc1`, the concentration at half-maximal activity (AC50) runs as follows: under setting [2], 35.5 µM [rising, single point]; under setting [1], 35.5 µM [rising, single point].
Regarding `CCOC(=O)c1ccc(CNC(=O)c2cc(C(C)(C)C)oc2C)o1`, the AC50 is, setting by setting: under setting [2], 5.62 µM [falling, single point]; under setting [1], 5.62 µM [falling, single point].
On to `COc1ccc(C=O)c(OC)c1`, for which the AC50 under setting [2] was 0.01 µM [falling, full curve, poor fit].
`Fc1ccc(Nc2nc(SCc3ccccc3Cl)nc3ccccc23)cc1`: the concentration at half-maximal activity (AC50) was 35.5 µM [falling, single point] under setting [2] and 35.5 µM [falling, single point] under setting [1].
Turning to `O=C(c1ccc(Cl)c(Cl)c1)N1CCC(=O)N(C(COCc2cccc(Cl)c2)Cc2ccccc2)CC1` (configuration not stated), the AC50 is 12.6 µM [rising, single point] under setting [2] and 17.8 µM [rising, partial curve] under setting [1].
With `Cc1[nH]n(-c2ccccc2)c(=O)c1/C=N\NC(=O)C1COc2ccccc2O1` (configuration not stated), under setting [1], the concentration at half-maximal activity (AC50) was 35.5 µM [rising, single point].
Still for that read-out and setting: to `NC(=O)C1CCN(C(=O)c2ccc3c(c2)N(Cc2cccc(Cl)c2)C(=O)c2ccccc2S3=O)CC1` (configuration not stated) belongs 1.41 µM [falling, full curve]; to `CN1C(=O)N(S(=O)(=O)c2ccc(F)c(F)c2F)C(=O)C1(C)C`, 6.31 µM [falling, full curve, poor fit].
Regarding `Cc1ccc(C(=O)NC(=C(Cl)Cl)S(=O)(=O)c2ccccc2)cc1`, the AC50 reads like this: under setting [2], 20 µM [falling, partial curve, poor fit]; under setting [1], 25.1 µM [falling, single point].
As to `Cc1ccc(CNC(=O)/C=C/C(=O)O)cc1`, under setting [1], the AC50 is 0.0794 µM [rising, full curve, poor fit].
Regarding `C[C@H](N[C@@H](C)COc1ccccc1)[C@H](O)c1ccc(O)cc1`, the AC50 under setting [2] was 0.708 µM [falling, partial curve, poor fit].
For `Cc1c(O)c(S(=O)(=O)c2ccccc2)c(=O)n(-c2ccccc2)c1-c1ccccc1`, the AC50 under setting [1] was 3.16 µM [rising, partial curve, poor fit].
The same measure, in the same setting: then `Cn1c(NCC(O)c2ccccc2)nc2c1c(=O)n(Cc1ccc(Cl)cc1)c(=O)n2C` (configuration not stated), with 10 µM [rising, partial curve, poor fit]; and `COCCn1c(CN2CCN(c3cccc(Cl)c3)CC2)nc2c1c(=O)n(C)c(=O)n2C`, with 7.94 µM [rising, partial curve].
Same read-out and setting: to `COC(=O)[C@H]1C[C@@H]1[C@H](NC(=O)c1cc(C)on1)c1ccccc1` belongs 2.24 µM [falling, partial curve, poor fit].
For the compound `COC(=O)c1c(C)[nH]c(C)c1-c1ccccc1`, the AC50 is 3.98 µM [rising, partial curve, poor fit] under setting [2] and 20 µM [rising, single point] under setting [1].
With `CCc1c(C)sc2c1CCN(Cc1cccc(OC)c1)C2c1ccccc1` (configuration not stated), the AC50 under setting [1] was 17.8 µM [rising, single point].
`CC(C)(C)c1csc(NC(=O)Cc2cccs2)n1`: the AC50 reads like this: under setting [2], 0.355 µM [rising, full curve, poor fit]; under setting [1], 31.6 µM [rising, single point].
As to `CCC(C(=O)NC1CCCC1)N(C(=O)c1snc(C(N)=O)c1N)c1ccc2c(c1)OCCO2` (configuration not stated), under setting [2], the AC50 was 11.2 µM [rising, partial curve, poor fit].
